From patent US20230248723A1, “PYRROLO[2,3-B]PYRAZINE COMPOUNDS AS CCCDNA INHIBITORS FOR THE TREATMENT OF HEPATITIS B VIRUS (HBV) INFECTION” (Hoffmann-La Roche Inc., priority 2017, published 2023)
Some of these results come from one statement about several compounds together.

Test system: cccDNA
Experiment: cccDNA assay (Southern Blot), HBV-infected PHH
Type: cell-based
Conditions: HBV GT D, compound at 2 or 6 μM from day 3 pi, Hirt extracts at day 10 pi

With `O=C(NC(CO)CO)c1c[nH]c2ncc(C3CC3)nc12` [compound 7] the “reduction of cccDNA levels (Southern Blot)” value was 34-49%.
